According to paper PMC5709507:
No constants are given. Whether binding was seen depends on the method and setting. In cells and extracts the contact can be indirect. A result given as binding can be weak or reduced; the word gives no strength. One block for each molecule: values may come before it.

By UniProt entry, the sequences of proteins in these tests, tags left out. Where a name states a change or a piece, a line headed by the entry shows the natural chain unless it says otherwise. Chains listed by the source or under a name are the forms on record and can include a tag or linker.
full-length YAP (YAP2) of mouse cerebellum (mouse (endogenous in cerebellum)) (P46938, form named): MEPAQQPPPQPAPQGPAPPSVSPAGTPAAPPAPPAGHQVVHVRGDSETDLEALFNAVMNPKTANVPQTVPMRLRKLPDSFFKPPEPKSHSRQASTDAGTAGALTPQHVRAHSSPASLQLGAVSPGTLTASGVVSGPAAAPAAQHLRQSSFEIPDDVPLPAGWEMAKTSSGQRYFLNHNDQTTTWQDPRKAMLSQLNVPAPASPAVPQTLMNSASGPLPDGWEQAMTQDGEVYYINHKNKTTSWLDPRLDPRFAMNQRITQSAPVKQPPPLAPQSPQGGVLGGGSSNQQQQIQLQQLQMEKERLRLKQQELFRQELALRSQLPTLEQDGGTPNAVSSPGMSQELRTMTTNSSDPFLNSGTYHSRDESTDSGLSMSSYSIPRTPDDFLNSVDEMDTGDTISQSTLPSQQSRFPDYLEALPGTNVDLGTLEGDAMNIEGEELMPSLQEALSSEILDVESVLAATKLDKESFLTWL

Assays:
[1] = target: full-length YAP (YAP2) of mouse cerebellum (mouse (endogenous in cerebellum)) (UniProt P46938); experiment: co-IP; cerebellar tissue of C57BL/6, Atxn1-KI (No Dox) and Group I mice at P7 and P21; reciprocal precipitation of YAP and RORα
[2] = target: YAPdeltaC of mouse cerebellum (mouse (endogenous in cerebellum)); experiment: as above

binding [1]: binds
Molecule: mutant Atxn1 (Atxn1-154Q) of Atxn1-KI (Sca1 154Q/2Q) mice (from UniProt P54254)

binding [2]: binds
B1: normal Atxn1 of mouse cerebellum (protein, UniProt P54254 1-791)
chain: MKSNQERSNECLPPKKREIPATSRPSEEKATALPSDNHCVEGVAWLPSTPGIRGHGGGRHGSAGTSGEHGLQGMGLHKALSAGLDYSPPSAPRSVPTANTLPTVYPPPQSGTPVSPVQYAHLSHTFQFIGSSQYSGPYAGFIPSQLISPSGNPVTSAVASAAGATTPSQRSQLEAYSTLLANMGSLSQAPGHKVEPPPQQHLSRAAGLVNPGSPPPPTQQNQYIHISSSPQSSGRATSPPPIPVHLHPHQTMIPHTLTLGPSSQVVVQYSDAGGHFVPRESTKKAESSRLQQAMQAKEVLNGEMEKSRRYGASSSVELSLGKASSKSVPHPYESRHVVVHPSPADYSSRDTSGVRGSVMVLPNSSTPSADLEAQQTTHREASPSTLNDKSGLHLGKPGHRSYALSPHTVIQTTHSASEPLPVGLPATAFYAGTQPPVIGYLSGQQQAITYAGGLPQHLVIPGNQPLLIPVGSPDMDTPGAASAIVTSSPQFAAVPHTFVTTALPKSENFNPEALVTQAAYPAMVQAQIHLPVVQSVASPTTASPTLPPYFMKGSIIQLANGELKKVEDLKTEDFIQSAEISNDLKIDSSTVERIEESHSPGVAVIQFAVGEHRAQVSVEVLVEYPFFVFGQGWSSCCPERTSQLFDLPCSKLSVGDVCISLTLKNLKNGSVKKGQPVDPASVLLKQAKTDSLAGSRHRYAEQENGINQGSAQVLSENGELKFPEKIGLPAAPFLSKIEPSKPTATRKRRWSAPETRKLEKSEDEPPLTLPKPSLIPQEVKICIEGRSNVGK
